Reference: publication doi:10.1101/2022.10.04.510906 (bioRxiv, 2022)
These are yes or no findings as the source states them, for the method shown. Binding can be weak; no strength is given.

Molecular target: T1, V/A-ATPase E subunit (Thermus thermophilus) (UniProt P74901)
T1 sequence: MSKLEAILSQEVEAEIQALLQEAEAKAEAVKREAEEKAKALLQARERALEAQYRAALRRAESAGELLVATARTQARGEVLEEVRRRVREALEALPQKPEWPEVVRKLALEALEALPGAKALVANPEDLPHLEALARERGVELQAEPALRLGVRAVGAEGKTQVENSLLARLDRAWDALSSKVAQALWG
Test: cryo-EM structure

binding: binds
Substance: V/A-ATPase G subunit (Thermus thermophilus)
